Our source for the binding values is paper PMC11821514 (Nature Cell Biology, 2025).

These are yes or no findings as the source states them, for the method shown. Some binding calls cover weakened binding; strength is not graded here. Tags and fused reporters may be left off the sequences shown.

The target in assay [1] is T1, Vac8 on purified vacuoles (budding yeast (endogenous in yeast vacuoles)) (UniProt P39968).
T1 sequence: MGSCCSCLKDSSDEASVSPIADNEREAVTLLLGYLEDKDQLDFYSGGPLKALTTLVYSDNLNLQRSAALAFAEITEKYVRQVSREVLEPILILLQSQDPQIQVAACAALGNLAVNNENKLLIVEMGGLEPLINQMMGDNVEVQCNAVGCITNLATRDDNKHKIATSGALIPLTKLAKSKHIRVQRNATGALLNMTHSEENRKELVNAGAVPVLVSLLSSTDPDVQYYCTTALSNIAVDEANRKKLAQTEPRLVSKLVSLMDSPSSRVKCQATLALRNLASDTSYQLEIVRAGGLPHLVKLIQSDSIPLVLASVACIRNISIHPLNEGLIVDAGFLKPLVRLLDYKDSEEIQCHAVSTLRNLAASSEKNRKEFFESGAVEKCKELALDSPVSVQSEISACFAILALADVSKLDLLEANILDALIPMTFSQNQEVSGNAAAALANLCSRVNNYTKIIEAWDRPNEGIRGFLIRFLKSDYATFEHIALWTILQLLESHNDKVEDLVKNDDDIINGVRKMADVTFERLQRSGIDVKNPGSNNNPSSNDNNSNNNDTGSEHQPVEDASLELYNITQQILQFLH
The experiment in a line: binding of condensates to purified vacuoles, fluorescence microscopy; purified vacuoles of wild-type or vac8∆ cells (Vph1–4xmCherry atg15∆ pep4∆) incubated with recombinant GFP–Atg11 droplets; condensates bound to vacuoles counted; only the binder purified.

Assay [2] concerns the target T2, GST–Ape1^1–45 (budding yeast) (UniProt P14904).
T2 sequence: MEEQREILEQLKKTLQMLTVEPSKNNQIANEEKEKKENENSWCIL
Briefly: pull-down; GST fusions on GSH beads incubated with purified recombinant Atg19^3D, 20 min at room temperature; six washes with GST-wash buffer containing 0.02% Tween-20; immunoblotting; both purified. For orientation: A western blot detects proteins with antibodies after separation by electrophoresis.

B1: StrepII–GFP–Atg11 (protein, UniProt Q12527 1-1178)
chain: MADADEYSTAPTQQEITPLQTTATIINAISGECITTNVDFFVSLDKFKQFIARKWKIPPDQLLILLPYGNKLKPSMFKELLINRSFTLNDFYVYDRRLFSLVSKPTPTNLLTSKDSNPMNSPNSNDLTETLEYLIKNSHISQYQGSDTIMIKPMPSPLEDADVDLSRLNYHSVTSLLTTNLGWLSALEIDVHYFKSLIPDIIAHIKRIFDGLTVCSQYLKLYCFDVESLYNSNVQFLNQLVDNGMTSKWEKCFNDTLSKLTALEGDSLQKFINIESLLENEKSVKILNHSINGKLNKIKREIDENASFRDIITVNIDRLRQMFTPNESKFELEDQMAESFEVLVSEMRTRSRNVLDKEEEEFNSQEFLKSMNVMLEKDKKESVKTLFTISQALYSQIGELIDLKKSLQKHAVAILGNIAFTQMEILGIKRLLLNECNKDLELYKKYEVEFAQVEDLPLIYGLYLIEKYRRLSWFQQILSFISNFNQDLELFKQNELRTRNKWVKNFGSIATVFCEDLLSSSDFKRLNEYHSHTSPPNEDEEDENENSIANYRQDLVKVSQAIDNYMTQIKETDVSEPIIDLLSKTLFETKRFHIIYSNFKNNNNNSSNGNSISPEGSIALKSDDVVKGYKTRIKKLESLLHEFQYSDIGHWPQGVLNTHLKPFRGSATSINKKKFLGASVLLEPANISEVNIDSVSQANNHQIQELESNVDDLLHQLQLLKEENNRKSMQISEMGKKISDLEVEKTAYRETLTNLNQELARLTNEEQSHRTEIFTLNASFKKQLNDIISQDNEKIEKLTGDYDDVSKSRERLQMDLDESNKKHEQEVNLLKADIERLGKQIVTSEKSYAETNSSSMEKGEKFETIPLAEDPGRENQISAYTQTLQDRIFDIISTNIFILENIGLLLTFDNNNNIQIRRVKGLKKGTAQSNILDESTQMLDAHDNSLIKSPVFQKLKDEYELIKSVANGSEKDTQQSIFLGNITQLYDNKLYEVAVIRRFKDIETLAKKLTKENKIKRTLLERFQREKVTLRNFQIGDLALFLPTRENVNSVGSMSSSTSSLSSSFSSVDLSTPPPLDAMSIQSSPSVIHSNVINQASISGRDKNKLMRPWAAFTAFEESTRYFLKDEKGLTKGKEWFVGRIVTLEHFVADSPSNNPFRLPKGSVWFQVTAVVVSYQGV
In the case of B1, in assay [1], the binding result is reported as “binds”.

B2: Atg19^3D (natural protein, budding yeast, UniProt P35193 1-415, looked up)
chain: MNNSKTNQQMNTSMGYPLTVYDECNKFQLIVPTLDANIMLWCIGQLSLLNDSNGCKHLFWQPNDKSNVRILLNNYDYGHLFKYLQCQRKCSVYIGEGTLKKYNLTISTSFDNFLDLTPSEEKESLCREDAHEDPVSPKAGSEEEISPNSTSNVVVSRECLDNFMKQLLKLEESLNKLELEQKVTNKEPNHRISGTIDIPEDRSELVNFFTELKTVKQLEDVFQRYHDYERLSQECDSKTEIASDHSKKETKIEVEPPNERSLQITMNQRDNSLYFQLFNNTNSVLAGNCKLKFTDAGDKPTTQIIDMGPHEIGIKEYKEYRYFPYALDLEAGSTIEIENQYGEVIFLGKYGSSPMINLRPPSRLSAESLQASQEPFYSFQIDTLPELDDDDIISTDISLSYDGDDNEKALTWEEL
notes: Atg19, budding yeast, phospho-mimetic mutant S390D, S391D, S396D; also called purified recombinant Atg19^3D; source: E. coli BL21(DE3), expressed as GST–Atg19^3D from pGEX-4T.1, purified (GSH beads, thrombin elution, Superdex200); not shown: GST, N-terminal, cleaved
Take B2: the binding entry in assay [2] is on record as “binds weakly”.
